# Results as given in PubChem BioAssay AID248 (DTP/NCI, 2004).
# The list is a part of this screen's results and no random one: it is rich in T/C values a quarter to a half above the control, in often repeated tests (any T/C) and in doses without a T/C. Other doses and runs of a compound stand elsewhere. T/C is the treated group as % of the vehicle group. Some doses have a count of surviving animals in place of a T/C: the source files T/C as zero there, which appears to mark a toxic dose or a test without result, not a measured value. Some survivor counts are full or nearly so, which does not show that the dose was tolerated: survival well below the control is almost never listed, so the zero probably covers shortened survival too. Counts of survivors are from the toxicity check (mostly the fifth day) where no day follows; animals may have died later. Schedule codes are those of the source, read here as Q, the interval in days (D) or hours (H), X, the number of doses. Some schedule codes hold Z or #, which are not explained here. Some entries were tested several times; the results are listed from low to high. Where survival is the endpoint, this PubChem deposit counts one and a half times the control or more as active, and values a quarter to a half above the control carry no call in these data; other NCI protocols may use other cut-offs. Some T/C values are followed by the survivors on the day toxicity was checked, most often the fifth; where none is given, no animal had died by that day.
# System: L1210 leukemia ip in BDF1 mice, survival T/C
# Assay: NCI In Vivo Anticancer Drug Screen. Data for tumor model L1210 Leukemia (intraperitoneal) in B6D2F1 (BDF1) mice
# Conditions: T/C endpoint: mean survival time, higher T/C = longer survival
# [1] = dose: 400.0 mg/kg/injection, schedule: Q01DX001 (ip), vehicle: saline
# [2] = dose: 200.0 mg/kg/injection, schedule: Q04DX003 (ip), vehicle: saline
# [3] = dose: 400.0 mg/kg/injection, schedule: Q04DX003 (ip), vehicle: saline
# [4] = dose: 100.0 mg/kg/injection, schedule: Q01DX009 (ip), vehicle: Klucel (hydroxypropylcellulose) (HPC)
# [5] = dose: 200.0 mg/kg/injection, schedule: Q01DX009 (ip), vehicle: saline with Tween-80
# [6] = dose: 100.0 mg/kg/injection, schedule: Q04DX002 (ip), vehicle: saline with Tween-80
# [7] = dose: 200.0 mg/kg/injection, schedule: Q04DX002 (ip), vehicle: saline with Tween-80
# [8] = dose: 400.0 mg/kg/injection, schedule: Q04DX002 (ip), vehicle: saline with Tween-80
# [9] = dose: 100.0 mg/kg/injection, schedule: Q04DX003 (ip), vehicle: saline
# [10] = dose: 200.0 mg/kg/injection, schedule: Q01DX001 (ip), vehicle: saline
# [11] = dose: 100.0 mg/kg/injection, schedule: Q01DX009 (ip), vehicle: carboxymethylcellulose (CMC)
smiles,measurement,setting,value
COc1ccc2c3c1OC1C=CC(O)C4C(C2)N(C)CCC314 (stereo not given),survivor count,[1],3 of 6
CN(C)C(=O)c1cc[n+](Cc2ccc(Cl)cc2)cc1,survivor count,[2],6 of 6
same,survivor count,[3],1 of 6
Cc1cccc(N2C(=O)C3C(C2=O)C2(Cl)C(Cl)=C(Cl)C3(Cl)C2(Cl)Cl)c1C (stereo not given),survivor count,[4],3 of 6
same,survivor count,"dose: 200.0 mg/kg/injection, schedule: Q01DX009 (ip), vehicle: Klucel (hydroxypropylcellulose) (HPC)",0 of 6
same,survivor count,"dose: 400.0 mg/kg/injection, schedule: Q01DX009 (ip), vehicle: Klucel (hydroxypropylcellulose) (HPC)",0 of 6
O=C1OC2C(I)C3CC1C2C3 (stereo not given),survivor count,[5],5 of 6
O=C(Nc1ccc(Cl)c(Cl)c1)O/N=C/c1ccccn1,survivor count,[5],6 of 6
O=C(Nc1ccc(OP(=O)(O)O)cc1)c1ccc(C(=O)Nc2ccc(OP(=O)(O)O)cc2)cc1,survivor count,"dose: 37.5 mg/kg/injection, schedule: Q01DX Z (ip), vehicle: water",1 of 6
same,survivor count,"dose: 75.0 mg/kg/injection, schedule: Q01DX Z (ip), vehicle: water",0 of 6
same,survivor count,"dose: 150.0 mg/kg/injection, schedule: Q01DX Z (ip), vehicle: water",0 of 6
O=c1oc2c(CN3CCCC3)c(O)ccc2c2c1CCCC2,survivor count,"dose: 400.0 mg/kg/injection, schedule: Q01DX001 (ip), vehicle: carboxymethylcellulose (CMC)",0 of 4
CC1CC/C(=C\c2ccccc2)C(=O)/C1=C/c1ccccc1 (stereo not given),survivor count,"dose: 400.0 mg/kg/injection, schedule: Q01DX009 (ip), vehicle: DMSO",6 of 6
CN(C)CCC(CNC1=NCCN1)c1cccc2ccccc12 (stereo not given),survivor count,[6],1 of 3
same,survivor count,[7],0 of 3
same,survivor count,[8],1 of 3
C=C[CH2][Sn]([CH2]C=C)([c]1ccccc1)[c]1ccccc1,survivor count,[6],0 of 3
same,survivor count,[7],0 of 3
same,survivor count,[8],0 of 3
CN(C)C(=O)C(c1ccccc1)[P+](C)(c1ccccc1)c1ccccc1 (stereo not given),survivor count,"dose: 150.0 mg/kg/injection, schedule: Q01DX001 (ip), vehicle: other",3 of 6
same,survivor count,"dose: 300.0 mg/kg/injection, schedule: Q01DX001 (ip), vehicle: other",2 of 6
Nc1nccs1,survivor count,"dose: 25.0 mg/kg/injection, schedule: Q04DX002 (ip), vehicle: saline",1 of 3
same,survivor count,"dose: 50.0 mg/kg/injection, schedule: Q04DX002 (ip), vehicle: saline",0 of 3
same,survivor count,"dose: 100.0 mg/kg/injection, schedule: Q04DX002 (ip), vehicle: saline",0 of 3
CC[N+](CC)(CC)CCCC[P+](CC)(CC)CC,survivor count,[9],2 of 6
same,survivor count,[2],0 of 6
same,survivor count,[3],0 of 6
O=C(Nc1ccc(C2=NCCN2)cc1)c1cccc(C(=O)Nc2ccc(C3=NCCN3)cc2)c1O,survivor count,"dose: 60.0 mg/kg/injection, schedule: Q01DX Z (ip), vehicle: carboxymethylcellulose (CMC)",3 of 6
Cc1ccccc1N1CCN(c2c3c(nc4ccccc24)CCCCC3)CC1,survivor count,[10],3 of 4
CNC(=O)OCC1=CC(=O)C=CC1=O,survivor count,"dose: 25.0 mg/kg/injection, schedule: Q04DX003 (ip), vehicle: Klucel (hydroxypropylcellulose) (HPC)",2 of 6
same,survivor count,"dose: 50.0 mg/kg/injection, schedule: Q01DX001 (ip), vehicle: Klucel (hydroxypropylcellulose) (HPC)",0 of 6
same,survivor count,"dose: 100.0 mg/kg/injection, schedule: Q01DX001 (ip), vehicle: Klucel (hydroxypropylcellulose) (HPC)",0 of 6
same,survivor count,"dose: 200.0 mg/kg/injection, schedule: Q01DX001 (ip), vehicle: Klucel (hydroxypropylcellulose) (HPC)",0 of 6
same,survivor count,"dose: 400.0 mg/kg/injection, schedule: Q01DX001 (ip), vehicle: Klucel (hydroxypropylcellulose) (HPC)",0 of 6
CC1(C)C[N+](Cc2ccccc2)(Cc2ccccc2)C1,survivor count,"dose: 12.5 mg/kg/injection, schedule: Q01DX009 (ip), vehicle: saline",6 of 6
same,survivor count,"dose: 25.0 mg/kg/injection, schedule: Q01DX009 (ip), vehicle: saline",0 of 6
same,survivor count,[9],0 of 6
same,survivor count,[2],0 of 6
same,survivor count,[3],0 of 6
O=C(CCN1CC1)OCCc1ccccc1,survivor count,[4],4 of 6
same,survivor count,"dose: 200.0 mg/kg/injection, schedule: Q04DX003 (ip), vehicle: Klucel (hydroxypropylcellulose) (HPC)",0 of 6
same,survivor count,"dose: 400.0 mg/kg/injection, schedule: Q04DX003 (ip), vehicle: Klucel (hydroxypropylcellulose) (HPC)",0 of 6
CN(C)CCCN=C1Nc2ccccc2C(=NCCCN(C)C)Nc2ccccc21,survivor count,"dose: 100.0 mg/kg/injection, schedule: Q04DX003 (ip), vehicle: acid diluted with saline",0 of 6
same,survivor count,"dose: 200.0 mg/kg/injection, schedule: Q04DX003 (ip), vehicle: acid diluted with saline",0 of 6
same,survivor count,"dose: 400.0 mg/kg/injection, schedule: Q04DX003 (ip), vehicle: acid diluted with saline",0 of 6
COC(=O)C(Cc1c[nH]c2ccccc12)[N+](C)(C)C (stereo not given),survivor count,"dose: 75.0 mg/kg/injection, schedule: Q01DX Z (ip), vehicle: saline",6 of 6
same,survivor count,"dose: 110.0 mg/kg/injection, schedule: Q01DX Z (ip), vehicle: saline",5 of 6 and 6 of 6
same,survivor count,"dose: 165.0 mg/kg/injection, schedule: Q01DX Z (ip), vehicle: saline",0 of 6
same,survivor count,"dose: 250.0 mg/kg/injection, schedule: Q01DX Z (ip), vehicle: saline",0 of 6
same,survivor count,"dose: 375.0 mg/kg/injection, schedule: Q01DX Z (ip), vehicle: saline",0 of 6
CN(Cc1ccccc1)C(Cc1c[nH]c2ccccc12)C(=O)O (stereo not given),survivor count,[10],6 of 6
same,survivor count,[1],3 of 6
Cc1nc(C(=O)O)c(=O)[nH]c1C,survivor count,"dose: 300.0 mg/kg/injection, schedule: Q01DX009 (ip), vehicle: water",0 of 6
same,survivor count,"dose: 400.0 mg/kg/injection, schedule: Q04DX003 (ip), vehicle: water",1 of 6
CCNCCCNc1ccnc2cc(Cl)ccc12,survivor count,"dose: 75.0 mg/kg/injection, schedule: Q01DX001 (ip), vehicle: saline",2 of 6
same,survivor count,"dose: 150.0 mg/kg/injection, schedule: Q01DX001 (ip), vehicle: saline",0 of 6
same,survivor count,"dose: 300.0 mg/kg/injection, schedule: Q01DX001 (ip), vehicle: saline",0 of 6
O=[N+]([O-])c1ccc(C[n+]2ccccc2)cc1,survivor count,"dose: 100.0 mg/kg/injection, schedule: Q01DX009 (ip), vehicle: saline",3 of 6
same,survivor count,"dose: 200.0 mg/kg/injection, schedule: Q01DX009 (ip), vehicle: saline",0 of 6
FC(F)(F)C(Cl)(c1ccc(Cl)cc1)c1ccc(Cl)cc1,T/C,"dose: 200.0 mg/kg/injection, schedule: Q04DX003 (sc), vehicle: olive oil, sesame oil, peanut oil",127 % of control
Cn1ccnc1Oc1ccc(Cl)cc1,T/C,"dose: 25.0 mg/kg/injection, schedule: Q04DX002 (ip), vehicle: Klucel (hydroxypropylcellulose) (HPC)",129 % of control
CN(C)CCSSCCN(C)C,survivor count,[1],1 of 4
C=CC[Si](Cl)(Cl)Cl,survivor count,[10],0 of 4
same,survivor count,[1],0 of 4
CNC(=O)Nc1cc(C)ccc1Cl,T/C,[11],"91, 96 [2 of 3 alive], 106 % of control"
same,survivor count,[11],6 of 6
same,T/C,"dose: 200.0 mg/kg/injection, schedule: Q01DX009 (ip), vehicle: carboxymethylcellulose (CMC)","87 [2 of 3 alive], 91, 96, 109 % of control"
same,survivor count,"dose: 400.0 mg/kg/injection, schedule: Q01DX009 (ip), vehicle: carboxymethylcellulose (CMC)",0 of 3
COc1cccc2c1C(=O)c1c(O)c3c(c(O)c1C2=O)CC(O)(C(C)=O)CC3OC1CC2NC(=O)OC2C(C)O1 (stereo not given),T/C,"dose: 200.0 mg/kg/injection, schedule: Q01DX001 (ip), vehicle: saline with Tween-80",148 % of control
same,T/C,"dose: 400.0 mg/kg/injection, schedule: Q01DX001 (ip), vehicle: saline with Tween-80",132 % of control
